Some of the results follow.

Chains of the proteins cited; added tags and fusions are not shown. Lines headed by an entry give the natural chain unless they say otherwise; changes in a name come on top.
UniProt Q8TD30: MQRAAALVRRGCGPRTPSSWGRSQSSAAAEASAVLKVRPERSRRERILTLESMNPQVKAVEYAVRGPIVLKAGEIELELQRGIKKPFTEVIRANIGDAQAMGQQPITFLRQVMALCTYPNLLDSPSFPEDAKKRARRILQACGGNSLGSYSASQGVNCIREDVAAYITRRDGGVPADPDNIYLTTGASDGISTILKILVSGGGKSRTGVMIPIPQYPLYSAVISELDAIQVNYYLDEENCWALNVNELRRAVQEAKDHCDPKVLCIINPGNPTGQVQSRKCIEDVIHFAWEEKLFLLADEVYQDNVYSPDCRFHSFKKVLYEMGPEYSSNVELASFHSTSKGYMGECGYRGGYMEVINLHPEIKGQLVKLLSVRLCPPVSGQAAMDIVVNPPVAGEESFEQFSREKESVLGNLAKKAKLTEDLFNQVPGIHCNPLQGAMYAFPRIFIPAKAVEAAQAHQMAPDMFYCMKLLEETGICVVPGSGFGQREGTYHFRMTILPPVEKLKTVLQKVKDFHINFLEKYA
UniProt Q8TAA5: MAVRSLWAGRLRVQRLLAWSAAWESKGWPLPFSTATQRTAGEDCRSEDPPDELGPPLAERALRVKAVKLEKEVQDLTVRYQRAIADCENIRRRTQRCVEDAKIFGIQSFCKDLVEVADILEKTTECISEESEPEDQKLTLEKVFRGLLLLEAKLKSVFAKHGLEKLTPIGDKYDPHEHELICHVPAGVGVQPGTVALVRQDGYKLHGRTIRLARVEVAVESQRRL
UniProt Q5VW38: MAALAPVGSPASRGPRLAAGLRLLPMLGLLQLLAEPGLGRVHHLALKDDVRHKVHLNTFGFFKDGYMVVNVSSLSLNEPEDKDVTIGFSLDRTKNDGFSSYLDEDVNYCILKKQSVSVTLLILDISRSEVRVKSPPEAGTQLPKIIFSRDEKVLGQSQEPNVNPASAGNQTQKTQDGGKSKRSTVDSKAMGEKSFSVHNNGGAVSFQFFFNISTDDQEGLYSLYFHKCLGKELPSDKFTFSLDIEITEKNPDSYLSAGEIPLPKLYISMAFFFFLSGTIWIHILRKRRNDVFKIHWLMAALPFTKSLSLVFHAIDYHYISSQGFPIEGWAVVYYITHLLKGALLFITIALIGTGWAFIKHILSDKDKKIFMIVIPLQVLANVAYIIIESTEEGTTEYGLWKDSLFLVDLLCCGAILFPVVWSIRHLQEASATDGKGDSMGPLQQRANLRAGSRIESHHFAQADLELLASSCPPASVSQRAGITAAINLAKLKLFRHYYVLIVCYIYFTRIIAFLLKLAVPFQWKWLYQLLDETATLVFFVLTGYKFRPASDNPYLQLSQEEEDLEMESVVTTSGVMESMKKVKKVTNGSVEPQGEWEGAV
UniProt Q9BVP2: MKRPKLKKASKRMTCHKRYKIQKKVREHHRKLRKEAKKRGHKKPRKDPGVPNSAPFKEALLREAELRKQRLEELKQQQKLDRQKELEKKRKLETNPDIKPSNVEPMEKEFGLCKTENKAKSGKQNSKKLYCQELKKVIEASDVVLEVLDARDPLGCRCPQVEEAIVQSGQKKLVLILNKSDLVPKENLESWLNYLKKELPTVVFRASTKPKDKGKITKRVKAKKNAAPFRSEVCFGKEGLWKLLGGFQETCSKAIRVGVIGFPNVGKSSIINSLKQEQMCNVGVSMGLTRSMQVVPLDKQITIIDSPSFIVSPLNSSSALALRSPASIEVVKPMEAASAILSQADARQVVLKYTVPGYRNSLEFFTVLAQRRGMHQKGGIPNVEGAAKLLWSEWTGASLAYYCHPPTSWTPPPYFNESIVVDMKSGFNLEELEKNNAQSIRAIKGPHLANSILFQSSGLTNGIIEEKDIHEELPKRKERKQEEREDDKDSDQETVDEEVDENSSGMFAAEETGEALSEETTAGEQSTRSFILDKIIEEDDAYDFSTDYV
UniProt Q99729: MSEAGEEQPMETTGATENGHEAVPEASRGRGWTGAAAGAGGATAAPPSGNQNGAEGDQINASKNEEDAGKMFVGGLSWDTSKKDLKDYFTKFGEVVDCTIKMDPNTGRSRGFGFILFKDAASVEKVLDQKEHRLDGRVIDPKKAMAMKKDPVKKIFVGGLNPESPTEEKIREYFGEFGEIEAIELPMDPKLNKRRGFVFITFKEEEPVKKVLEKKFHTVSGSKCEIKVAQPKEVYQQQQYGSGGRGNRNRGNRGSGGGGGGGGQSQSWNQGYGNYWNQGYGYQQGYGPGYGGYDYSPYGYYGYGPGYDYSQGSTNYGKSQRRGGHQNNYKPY
UniProt Q969F9: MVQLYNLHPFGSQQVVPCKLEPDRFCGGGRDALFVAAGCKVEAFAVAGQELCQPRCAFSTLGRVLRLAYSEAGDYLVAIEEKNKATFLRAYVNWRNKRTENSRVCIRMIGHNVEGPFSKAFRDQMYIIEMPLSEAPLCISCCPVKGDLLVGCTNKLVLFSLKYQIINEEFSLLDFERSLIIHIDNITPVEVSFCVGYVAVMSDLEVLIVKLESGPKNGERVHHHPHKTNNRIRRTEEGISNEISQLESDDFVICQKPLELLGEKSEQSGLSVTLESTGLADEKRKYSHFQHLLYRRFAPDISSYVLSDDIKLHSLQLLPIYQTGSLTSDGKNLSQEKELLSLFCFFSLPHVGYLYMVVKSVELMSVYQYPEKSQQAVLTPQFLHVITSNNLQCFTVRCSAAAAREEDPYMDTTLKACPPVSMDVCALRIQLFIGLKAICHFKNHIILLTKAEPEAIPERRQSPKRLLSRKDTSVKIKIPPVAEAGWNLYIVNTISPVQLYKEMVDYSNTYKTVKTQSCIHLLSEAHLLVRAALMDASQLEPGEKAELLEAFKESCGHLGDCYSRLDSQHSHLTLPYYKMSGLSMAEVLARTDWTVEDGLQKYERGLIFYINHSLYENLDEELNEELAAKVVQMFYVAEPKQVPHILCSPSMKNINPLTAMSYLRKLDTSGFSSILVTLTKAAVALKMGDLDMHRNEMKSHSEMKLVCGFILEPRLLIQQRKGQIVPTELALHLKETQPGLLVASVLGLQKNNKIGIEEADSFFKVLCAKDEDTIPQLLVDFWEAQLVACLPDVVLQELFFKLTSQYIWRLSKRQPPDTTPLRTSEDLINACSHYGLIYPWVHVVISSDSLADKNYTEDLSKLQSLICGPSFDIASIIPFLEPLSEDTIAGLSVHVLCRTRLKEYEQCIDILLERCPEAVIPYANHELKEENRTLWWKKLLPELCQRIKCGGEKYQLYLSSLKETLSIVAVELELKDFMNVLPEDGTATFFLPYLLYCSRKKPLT
UniProt Q96JZ2: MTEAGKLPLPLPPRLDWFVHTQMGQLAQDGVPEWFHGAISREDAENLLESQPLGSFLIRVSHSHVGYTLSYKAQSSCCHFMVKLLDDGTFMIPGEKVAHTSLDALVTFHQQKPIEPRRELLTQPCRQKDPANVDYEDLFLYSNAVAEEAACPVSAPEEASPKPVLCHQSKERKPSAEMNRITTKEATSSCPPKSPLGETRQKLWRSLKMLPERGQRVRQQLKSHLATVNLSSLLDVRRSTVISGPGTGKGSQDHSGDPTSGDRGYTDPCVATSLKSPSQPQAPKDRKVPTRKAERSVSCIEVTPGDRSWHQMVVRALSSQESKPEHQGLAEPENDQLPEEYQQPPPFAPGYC
UniProt P04792, whole entry: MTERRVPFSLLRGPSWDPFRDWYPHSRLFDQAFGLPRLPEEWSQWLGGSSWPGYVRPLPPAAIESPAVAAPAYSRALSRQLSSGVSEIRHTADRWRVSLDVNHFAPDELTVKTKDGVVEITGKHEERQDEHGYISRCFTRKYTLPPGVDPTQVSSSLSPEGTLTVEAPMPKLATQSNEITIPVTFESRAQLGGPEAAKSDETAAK
UniProt P51991: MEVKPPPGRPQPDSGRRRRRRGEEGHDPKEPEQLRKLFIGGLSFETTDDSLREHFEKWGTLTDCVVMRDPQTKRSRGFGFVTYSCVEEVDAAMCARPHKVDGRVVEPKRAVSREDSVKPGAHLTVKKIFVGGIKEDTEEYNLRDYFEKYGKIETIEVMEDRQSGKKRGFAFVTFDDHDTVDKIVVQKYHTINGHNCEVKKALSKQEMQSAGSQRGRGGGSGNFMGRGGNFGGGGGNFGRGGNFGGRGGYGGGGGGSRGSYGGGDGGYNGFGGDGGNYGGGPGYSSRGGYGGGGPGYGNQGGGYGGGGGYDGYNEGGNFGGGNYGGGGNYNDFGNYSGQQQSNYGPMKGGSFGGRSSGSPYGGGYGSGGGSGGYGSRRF
UniProt Q9BT25: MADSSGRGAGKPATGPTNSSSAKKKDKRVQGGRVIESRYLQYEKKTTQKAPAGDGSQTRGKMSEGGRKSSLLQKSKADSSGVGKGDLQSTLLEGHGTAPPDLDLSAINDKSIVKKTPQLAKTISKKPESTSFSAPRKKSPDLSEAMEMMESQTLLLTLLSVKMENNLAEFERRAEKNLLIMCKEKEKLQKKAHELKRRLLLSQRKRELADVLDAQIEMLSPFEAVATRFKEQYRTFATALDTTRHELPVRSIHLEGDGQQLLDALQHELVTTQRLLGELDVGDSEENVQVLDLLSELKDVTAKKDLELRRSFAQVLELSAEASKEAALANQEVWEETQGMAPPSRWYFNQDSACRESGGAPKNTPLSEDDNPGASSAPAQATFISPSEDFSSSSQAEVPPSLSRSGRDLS
UniProt P52758: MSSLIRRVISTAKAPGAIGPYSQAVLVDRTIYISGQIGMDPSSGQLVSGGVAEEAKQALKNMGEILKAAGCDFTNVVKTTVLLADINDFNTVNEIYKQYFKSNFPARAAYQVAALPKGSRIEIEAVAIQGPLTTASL
UniProt Q96CP6, whole entry: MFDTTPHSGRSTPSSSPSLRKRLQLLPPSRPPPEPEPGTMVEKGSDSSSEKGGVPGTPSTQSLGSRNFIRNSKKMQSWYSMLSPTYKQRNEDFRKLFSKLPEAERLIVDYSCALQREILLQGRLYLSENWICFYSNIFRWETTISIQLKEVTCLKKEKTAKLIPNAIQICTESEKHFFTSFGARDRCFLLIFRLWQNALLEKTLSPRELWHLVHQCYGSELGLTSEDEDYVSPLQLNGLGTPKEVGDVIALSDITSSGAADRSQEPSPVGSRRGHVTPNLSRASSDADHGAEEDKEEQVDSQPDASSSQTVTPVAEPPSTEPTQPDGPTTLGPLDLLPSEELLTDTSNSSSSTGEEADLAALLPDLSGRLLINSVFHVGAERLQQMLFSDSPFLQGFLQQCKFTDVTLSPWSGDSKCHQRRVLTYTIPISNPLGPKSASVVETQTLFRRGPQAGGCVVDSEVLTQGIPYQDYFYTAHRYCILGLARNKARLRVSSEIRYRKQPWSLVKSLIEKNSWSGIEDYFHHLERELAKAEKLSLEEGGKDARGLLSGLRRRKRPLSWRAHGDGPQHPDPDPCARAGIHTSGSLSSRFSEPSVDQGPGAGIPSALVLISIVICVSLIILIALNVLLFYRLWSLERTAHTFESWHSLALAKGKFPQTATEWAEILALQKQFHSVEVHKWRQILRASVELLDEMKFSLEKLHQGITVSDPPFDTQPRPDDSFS
UniProt P56524: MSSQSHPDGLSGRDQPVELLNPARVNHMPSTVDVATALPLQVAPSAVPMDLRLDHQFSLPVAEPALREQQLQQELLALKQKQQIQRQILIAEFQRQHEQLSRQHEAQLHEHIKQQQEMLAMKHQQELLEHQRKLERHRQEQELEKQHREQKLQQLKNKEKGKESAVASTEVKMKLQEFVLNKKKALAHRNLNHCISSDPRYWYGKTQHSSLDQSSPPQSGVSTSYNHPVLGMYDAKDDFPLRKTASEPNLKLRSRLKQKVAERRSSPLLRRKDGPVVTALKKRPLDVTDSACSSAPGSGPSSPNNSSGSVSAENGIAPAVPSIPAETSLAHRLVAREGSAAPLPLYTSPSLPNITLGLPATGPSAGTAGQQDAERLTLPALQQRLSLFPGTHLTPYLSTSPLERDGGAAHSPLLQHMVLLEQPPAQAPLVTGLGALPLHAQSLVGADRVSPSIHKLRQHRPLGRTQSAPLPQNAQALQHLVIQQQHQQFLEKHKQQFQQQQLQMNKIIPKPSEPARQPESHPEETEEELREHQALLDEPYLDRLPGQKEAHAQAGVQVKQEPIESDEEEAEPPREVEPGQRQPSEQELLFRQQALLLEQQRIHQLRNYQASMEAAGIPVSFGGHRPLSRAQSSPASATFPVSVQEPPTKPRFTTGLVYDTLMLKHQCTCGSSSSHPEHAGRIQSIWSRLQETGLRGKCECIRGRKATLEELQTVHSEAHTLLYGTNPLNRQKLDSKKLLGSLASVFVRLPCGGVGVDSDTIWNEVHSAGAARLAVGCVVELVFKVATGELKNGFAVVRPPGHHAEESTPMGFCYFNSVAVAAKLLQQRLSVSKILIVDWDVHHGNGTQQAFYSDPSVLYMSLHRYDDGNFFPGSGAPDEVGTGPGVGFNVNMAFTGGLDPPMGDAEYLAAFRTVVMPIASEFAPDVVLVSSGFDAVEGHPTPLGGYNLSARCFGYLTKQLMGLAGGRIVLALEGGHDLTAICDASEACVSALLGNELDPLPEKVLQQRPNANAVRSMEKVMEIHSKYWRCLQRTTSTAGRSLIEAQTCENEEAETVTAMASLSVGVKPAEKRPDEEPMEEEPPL

Compound in this experiment: COc1ccc(Cn2ccc3cc(C)c(C(=O)NO)cc32)cc1
Kind of experiment: dose-dependent thermal stabilisation call (2D-TPP, DLPTP, 10% FDR) (binary (1 = stabilised)); higher = stabilised by the compound. To be noted: system: HL-60 intact cells; concentration range 0.04-10 µM. The method, then: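 2D thermal proteome profiling in intact HL-60 cells treated with BRD-3811 (0, 0.04, 0.29, 2, 10 uM) for 90 min at 37 C, then heated 3 min at one of 12 temperatures (42-63.9 C). Soluble protein was quantified by TMT10 MS. The value is the DLPTP call of the paper: dose-dependent thermal stabilisation over all temperatures at 10% FDR (F-test of a dose-response against a flat model); one experiment, one call per tested protein.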
On to GPAA1 (UniProt O43292), for which the “dose-dependent thermal stabilisation call” value is inactive: 0.

GPT2 (UniProt Q8TD30): the “dose-dependent thermal stabilisation call” value is inactive: 0.

Consider HDAC3 (UniProt O15379), for which the “dose-dependent thermal stabilisation call” value is inactive: 0.

Take H1FX (UniProt Q92522): the “dose-dependent thermal stabilisation call” value is inactive: 0.

On to HCG_21078, for which the “dose-dependent thermal stabilisation call” value is inactive: 0.

As to HNRNPK (UniProt P61978), the “dose-dependent thermal stabilisation call” value is inactive: 0.

Turning to HGS (UniProt O14964), the “dose-dependent thermal stabilisation call” value is inactive: 0.

As to GPATCH8 (UniProt Q9UKJ3), the “dose-dependent thermal stabilisation call” value is inactive: 0.

With GTPBP2 (UniProt Q9BX10), the “dose-dependent thermal stabilisation call” value was inactive: 0.

As for GRK6 (UniProt P43250), the “dose-dependent thermal stabilisation call” value was inactive: 0.

In the case of GRPEL2 (UniProt Q8TAA5), the “dose-dependent thermal stabilisation call” value was inactive: 0.

As for HCFC1 (UniProt P51610), the “dose-dependent thermal stabilisation call” value was inactive: 0.

With GPR107 (UniProt Q5VW38), the “dose-dependent thermal stabilisation call” value is inactive: 0.

Turning to HMGXB4 (UniProt Q9UGU5), the “dose-dependent thermal stabilisation call” value was inactive: 0.

With GNL3 (UniProt Q9BVP2), the “dose-dependent thermal stabilisation call” value was inactive: 0.

Turning to HIRA (UniProt P54198), the “dose-dependent thermal stabilisation call” value was inactive: 0.

In the case of HNRNPAB (UniProt Q99729), the “dose-dependent thermal stabilisation call” value was inactive: 0.

In the case of HPS3 (UniProt Q969F9), the “dose-dependent thermal stabilisation call” value was inactive: 0.

In the case of HSH2D (UniProt Q96JZ2), the “dose-dependent thermal stabilisation call” value is inactive: 0.

For the target HEL308 (UniProt Q8TDG4), the “dose-dependent thermal stabilisation call” value was inactive: 0.

Take HIST1H4A (UniProt P62805): the “dose-dependent thermal stabilisation call” value is inactive: 0.

For HAT1 (UniProt O14929), the “dose-dependent thermal stabilisation call” value was inactive: 0.

As for HSPB1 (UniProt P04792), the “dose-dependent thermal stabilisation call” value was inactive: 0.

HNRNPA3 (UniProt P51991): the “dose-dependent thermal stabilisation call” value was inactive: 0.

Consider HICE1 (UniProt Q9BT25), for which the “dose-dependent thermal stabilisation call” value was inactive: 0.

As for HMGA1 (UniProt P17096), the “dose-dependent thermal stabilisation call” value is inactive: 0.

As to HRSP12 (UniProt P52758), the “dose-dependent thermal stabilisation call” value is inactive: 0.

Take GPX4 (UniProt P36969): the “dose-dependent thermal stabilisation call” value is inactive: 0.

Consider GPN3 (UniProt Q9UHW5), for which the “dose-dependent thermal stabilisation call” value is inactive: 0.

For GRAMD1A (UniProt Q96CP6), the “dose-dependent thermal stabilisation call” value was inactive: 0.

HMBS (UniProt P08397): the “dose-dependent thermal stabilisation call” value was inactive: 0.

For the target GOLIM4 (UniProt O00461), the “dose-dependent thermal stabilisation call” value is inactive: 0.

In the case of GTF3C1 (UniProt Q12789), the “dose-dependent thermal stabilisation call” value was inactive: 0.

Consider HDAC4 (UniProt P56524), for which the “dose-dependent thermal stabilisation call” value was inactive: 0.

With GPR108 (UniProt Q9NPR9), the “dose-dependent thermal stabilisation call” value is inactive: 0.

Values taken from the supplement of paper PMC7666118.
